In article PMC10985093:
Results are given in words; binding and its absence hold for the method and conditions named. In cells and extracts the contact can be indirect. Some binding calls cover weakened binding; strength is not graded here.

T1: O-GlcNAc transferase (OGT), endogenous (mouse (endogenous in mESCs)) (UniProt Q8CGY8)
T1 sequence: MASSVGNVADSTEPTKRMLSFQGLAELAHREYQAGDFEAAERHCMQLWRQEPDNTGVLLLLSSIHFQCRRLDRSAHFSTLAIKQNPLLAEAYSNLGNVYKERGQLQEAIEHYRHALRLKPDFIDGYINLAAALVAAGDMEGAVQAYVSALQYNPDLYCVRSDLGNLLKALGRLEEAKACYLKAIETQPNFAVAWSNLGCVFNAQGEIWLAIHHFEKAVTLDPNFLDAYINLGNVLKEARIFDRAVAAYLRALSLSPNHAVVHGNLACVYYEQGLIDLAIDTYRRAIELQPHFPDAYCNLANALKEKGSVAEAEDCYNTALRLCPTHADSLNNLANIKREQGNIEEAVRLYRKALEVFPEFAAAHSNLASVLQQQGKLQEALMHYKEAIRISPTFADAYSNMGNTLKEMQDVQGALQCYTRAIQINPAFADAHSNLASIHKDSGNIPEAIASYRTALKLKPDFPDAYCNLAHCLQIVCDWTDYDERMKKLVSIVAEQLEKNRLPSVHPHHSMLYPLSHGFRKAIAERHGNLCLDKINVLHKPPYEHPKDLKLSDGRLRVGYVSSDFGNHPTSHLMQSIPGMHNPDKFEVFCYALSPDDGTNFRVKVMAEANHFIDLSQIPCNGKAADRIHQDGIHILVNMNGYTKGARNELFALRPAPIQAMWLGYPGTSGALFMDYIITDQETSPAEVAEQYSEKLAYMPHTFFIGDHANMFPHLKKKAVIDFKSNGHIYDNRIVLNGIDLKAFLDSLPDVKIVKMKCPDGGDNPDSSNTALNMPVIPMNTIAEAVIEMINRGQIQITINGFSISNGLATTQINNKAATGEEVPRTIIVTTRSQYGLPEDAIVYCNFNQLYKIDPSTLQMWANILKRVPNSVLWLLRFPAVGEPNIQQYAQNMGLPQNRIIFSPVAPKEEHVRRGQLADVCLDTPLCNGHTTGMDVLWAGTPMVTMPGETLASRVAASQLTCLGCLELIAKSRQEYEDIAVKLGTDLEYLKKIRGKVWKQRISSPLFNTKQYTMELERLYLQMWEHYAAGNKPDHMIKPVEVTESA

T2: CCCTC-binding factor (CTCF), endogenous (mouse (endogenous in mESCs)) (UniProt Q61164)
T2 sequence (chain, O-GlcNAc at T668 (in 60.09% of CTCF)): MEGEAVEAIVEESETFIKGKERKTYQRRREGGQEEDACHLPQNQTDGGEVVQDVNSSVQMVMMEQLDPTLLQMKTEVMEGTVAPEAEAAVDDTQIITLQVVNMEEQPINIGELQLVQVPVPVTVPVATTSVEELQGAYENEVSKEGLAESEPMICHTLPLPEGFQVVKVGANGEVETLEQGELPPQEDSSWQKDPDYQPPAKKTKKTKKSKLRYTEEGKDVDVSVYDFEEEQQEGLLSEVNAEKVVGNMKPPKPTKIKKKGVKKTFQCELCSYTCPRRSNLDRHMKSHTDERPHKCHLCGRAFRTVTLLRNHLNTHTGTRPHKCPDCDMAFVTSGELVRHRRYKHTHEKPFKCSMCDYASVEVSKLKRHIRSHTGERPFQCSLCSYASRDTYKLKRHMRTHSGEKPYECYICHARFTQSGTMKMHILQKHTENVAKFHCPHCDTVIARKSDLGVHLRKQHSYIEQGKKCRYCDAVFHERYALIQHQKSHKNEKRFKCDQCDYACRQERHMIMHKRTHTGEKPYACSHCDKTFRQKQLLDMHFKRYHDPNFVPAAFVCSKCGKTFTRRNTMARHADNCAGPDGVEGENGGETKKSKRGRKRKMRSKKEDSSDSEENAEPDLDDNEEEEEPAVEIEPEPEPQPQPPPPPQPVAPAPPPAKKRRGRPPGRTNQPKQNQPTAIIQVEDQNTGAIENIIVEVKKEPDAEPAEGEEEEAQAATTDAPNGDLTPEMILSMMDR


Columns and labels:
[1] = biological target: T1, O-GlcNAc transferase (OGT), endogenous (mouse (endogenous in mESCs)); test: co-IP; nuclear extracts of mESCs (10 million cells); endogenous CTCF immunoprecipitated with 5 µg CTCF antibody pre-bound to Protein G agarose, OGT detected by western blot; the OGT immunoprecipitation done in the same way
[2] = biological target: T2, CCCTC-binding factor (CTCF), endogenous (mouse (endogenous in mESCs)); test: as above

binding [1] | binding [2] | Molecule
binds | – | CCCTC-binding factor (CTCF), endogenous (from UniProt Q61164 1-736)
– | binds | O-GlcNAc transferase (OGT), endogenous (enzyme, UniProt Q8CGY8 1-1046) MASSVGNVADSTEPTKRMLSFQGLAELAHREYQAGDFEAAERHCMQLWRQEPDNTGVLLLLSSIHFQCRRLDRSAHFSTLAIKQNPLLAEAYSNLGNVYKERGQLQEAIEHYRHALRLKPDFIDGYINLAAALVAAGDMEGAVQAYVSALQYNPDLYCVRSDLGNLLKALGRLEEAKACYLKAIETQPNFAVAWSNLGCVFNAQGEIWLAIHHFEKAVTLDPNFLDAYINLGNVLKEARIFDRAVAAYLRALSLSPNHAVVHGNLACVYYEQGLIDLAIDTYRRAIELQPHFPDAYCNLANALKEKGSVAEAEDCYNTALRLCPTHADSLNNLANIKREQGNIEEAVRLYRKALEVFPEFAAAHSNLASVLQQQGKLQEALMHYKEAIRISPTFADAYSNMGNTLKEMQDVQGALQCYTRAIQINPAFADAHSNLASIHKDSGNIPEAIASYRTALKLKPDFPDAYCNLAHCLQIVCDWTDYDERMKKLVSIVAEQLEKNRLPSVHPHHSMLYPLSHGFRKAIAERHGNLCLDKINVLHKPPYEHPKDLKLSDGRLRVGYVSSDFGNHPTSHLMQSIPGMHNPDKFEVFCYALSPDDGTNFRVKVMAEANHFIDLSQIPCNGKAADRIHQDGIHILVNMNGYTKGARNELFALRPAPIQAMWLGYPGTSGALFMDYIITDQETSPAEVAEQYSEKLAYMPHTFFIGDHANMFPHLKKKAVIDFKSNGHIYDNRIVLNGIDLKAFLDSLPDVKIVKMKCPDGGDNPDSSNTALNMPVIPMNTIAEAVIEMINRGQIQITINGFSISNGLATTQINNKAATGEEVPRTIIVTTRSQYGLPEDAIVYCNFNQLYKIDPSTLQMWANILKRVPNSVLWLLRFPAVGEPNIQQYAQNMGLPQNRIIFSPVAPKEEHVRRGQLADVCLDTPLCNGHTTGMDVLWAGTPMVTMPGETLASRVAASQLTCLGCLELIAKSRQEYEDIAVKLGTDLEYLKKIRGKVWKQRISSPLFNTKQYTMELERLYLQMWEHYAAGNKPDHMIKPVEVTESA
